Reference: EP1464649A2, “Sugar derivatives comprising oxiranes or alpha,beta-unsaturated gamma-lactones, process for their preparation and their utilisation as pesticides” (Instituto Politécnico de Santarém / Escola Superior Agraria, priority 2003, dated 2004)

Experiments:
[1] = system: adult fruit fly (D. melanogaster); experiment: Method A: topical treatment of adult fruit fly; assay type: in vivo, Drosophila melanogaster; details: slope of log-probit regression line
Method: A culture of fruit flies (D. melanogaster) was used in the production of adult flies (approx 0.22 mg) of about seven days.
Serial dilutions of the compounds were prepared in acetone, and volumes of approximately 0.2 µL were applied to the ventral surface of each insect, using a calibrated PAX 100 microapplicator and a 1 mL syringe.
The fruit flies, in groups of 5, were anaesthetised using carbon dioxide. Prior to recovery the flies were placed in a containing vial and kept at 30±1°C, for observations of mortality at 1, 2, 3 and 24 hours after treatment.
For this purpose solutions of 6 different concentrations and a control were employed in groups of 12 and 20 insects. Control mortalities were normally zero but occasionally rose to 5-10%.
(§1) Dosages used in insect treatments were based upon the amount of compound applied to each insect. For the shrimps the final concentrations of the compounds in the immersion brine were used.
(§2) The 24 hour mortalities were used to calculate the LD50/LC50 using regression analysis of the probability percent mortality (probit) against log dose/concentration.^30 This was calculated using PoloPC software (LeOra Software, Berkeley, CA, 1994).

[2] = system: brine shrimp A. salina larvae; assay type: in vivo; details: Method F, slope of log-probit regression line
Method: Freshly hatched brine shrimps were prepared by adding aquarium brine shrimp eggs to salt water (15 g sea salt per litre water). The following day hatchlings were separated from eggs and empty egg cases, using their phototropic movement and a Pasteur pipette.
Into each of a set of small glass vials was pipetted 195 µL of brine containing 5 shrimp larvae, using a micropipette. The solution of the test compound in 5 µL acetone was added, the vial closed and kept at 30±1°C for observation.
Dead and alive shrimps were counted, at 1 and 24 hours after treatment, using a microscope. Six concentrations and a control were used with 10 shrimps treated.
A blank test was performed for comparison of the results.
as §1, §2

Methyl 2,3;5,6-Dianhydro-β-L-gulofuranoside [Compound 9]
Slope [1]: 0.326±0.106 | Slope [2]: 8.734±1.862

COC1OC(C2CC(C)([Se]c3ccccc3)C(=O)O2)C2OC12 [Compound 6, methyl (7R)-/(7S)-2,3-anhydro-6,7-dideoxy-7-methyl-7-phenylselenyl-β-L-gulo-octofuranurono-8,5-lactone]
Slope [1]: 0.696±0.155 | Slope [2]: 10.275±2.421
